The record followed here is patent publication US20180344763A1, “METHODS FOR ADVERSELY AFFECTING BIOFILMS” (Commonwealth Scientific and Industrial Research Organisation, priority 2015, published 2018).

Assay [1] has as its system C. albicans. The assay is described as follows: Planktonic MIC in presence or absence of isolated biofilm matrix. Type of assay: cell-based. As to conditions: Candida albicans, no biofilm matrix, read-out: MIC, medium only. The method, then: (§1) Minimum inhibitory concentrations (MICs) for antibacterial and antifungal agents were determined using the broth microdilution method according to CLSI guidelines M07-A9 (for S. aureus) and M27-A3 (for C. albicans), but replacing Muller-Hinton broth with RPMI-1640 for antibacterial MIC testing. One hundred microlitres of two-fold serial dilutions of the drugs prepared in RPMI-1640 were added into the wells of 96-well microplates. Exponentially grown cultures were diluted in RPMI-1640 to a density of ˜1×10^3 CFU/mL for C. albicans and ˜1×10^6 CFU/mL for S. aureus and 100 μL were added to each well. Microplates were incubated for 18 h at 35° C. for S. aureus and 48 h for C. albicans. Bacterial or fungal growth was examined visually with the aid of a mirror reader. The antibacterial MIC was defined as the lowest concentration resulting in complete growth inhibition. The MIC of antifungals was read as the lowest concentration that prevents discernible growth for amphotericin B or polymers, or as the lowest concentration that inhibits at least 50% of fungal growth for fluconazole and caspofungin, corresponding to a score of zero or two in the CLSI M27-A3 protocol.
Extracellular matrix was isolated from Candida or polymicrobial biofilms following the method reported in PLoS pathogens 2012, 8:e1002848. Biofilms were established by growing cultures in 6-well TCPS microplates for 48 h at 37° C. […]

The subject of assay [2] is C. albicans. In words: Broth microdilution MIC, planktonic cells. Type of assay: cell-based. The settings on record: Candida albicans; C. albicans single species culture, RPMI-1640, 48 h. The method, then:
as §1

Converted amounts (≈) assume the structure as drawn.

For the molecule `OC(Cn1cncn1)(Cn1cncn1)c1ccc(F)cc1F` [Fluconazole, fluconazole], the MIC with C. albicans [1] and with C. albicans [2] was 0.5 µg/mL (≈ 1.63 µM) in each case.
